± gives the uncertainty stated by the source. Many entries were measured with a wide error.
Assay: self-splicing fitness, log relative to wild type (ln ratio); higher = more splicing; Tetrahymena group I intron in knt gene, E. coli kanamycin selection, DiMSum; sequences stand for … in CUCUCU…GGAGGGAAAAGUUAUCAGGCAUGCACCUGGUAGCUAGUCUUUAAACCAAUAGAUUGCAUCGGUUUAAAAGGCAAGACCGUCAAAUUGCGGGAAAGGGGUCAACAGCCGUUCAGUACCAAGUCUCAGGGGAAACUUUGAGAUGGCCUUGCAAAGGGUAUGGUAAUAAGCUGACGGACAUGGUCCUAACCACGCAGCCAAGUCCUAAGUCAACAGAUCUUCUGUUGAUAUGGAUGCAGUUCACAGACUAAAUGUCGGUCGGGGAAGAUGUAUUCUUCUCAUAAGAUAUAGUCGGACCUCUCCUUAAUGGGAGCUAGCGGAUGAAGUGAUGCAACACUGGAGCCGCUGGGAACUAAUUUGUAUGCGAAAGUAUAUUGAUUAGUUUUGGAGUACUCGUGGUCG
Method in brief: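 The eight P1ex-region nucleotides of an intron in the knt kanamycin-resistance gene on pET-22b(+) were all randomised and the library put into E. coli BL21(DE3). Six replicate transformations were grown overnight at 37°C or 30°C on LB agar with or without 25 μg/mL kanamycin, together with 100 μg/mL carbenicillin, 50 μM IPTG and 0.2% rhamnose. Colonies were pooled and amplicon-sequenced on an Illumina HiSeq 2500. Fitness from DiMSum is the error-weighted combination of wild-type-normalised replicate fold changes, kanamycin over none.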

Sequence | self-splicing fitness (ln) (30 °C) | self-splicing fitness (ln) (37 °C)
GUACAGCAAUAUUACGAUCG | -1.67 ± 0.12 | -0.932 ± 0.16
UUAGAGCAAUAUUACGUACC | -3.13 ± 1 | –
UGUCAGCAAUAUUACGGCUA | 0.131 ± 0.094 | 0.327 ± 0.12
GGUAAGCAAUAUUACGCCAC | -1.43 ± 0.51 | –
GAAGAGCAAUAUUACGAGGA | -2.21 ± 0.79 | -2.66 ± 0.61
UCAGAGCAAUAUUACGGACC | -3.8 ± 0.61 | -1.85 ± 0.81
GAGUAGCAAUAUUACGCUGC | -2.81 ± 1.1 | -2.05 ± 0.53
GAUAAGCAAUAUUACGUAUU | -4.03 ± 0.37 | -1.78 ± 0.21
GGAUAGCAAUAUUACGGGGU | -4.47 ± 1 | -3.01 ± 0.35
CGUCAGCAAUAUUACGCCUC | -3.25 ± 0.66 | –
CUUCAGCAAUAUUACGCCCU | -4.01 ± 0.53 | -1.76 ± 0.58
CGACAGCAAUAUUACGCGAC | -4.48 ± 0.51 | –
CAGAAGCAAUAUUACGAUGU | -3.37 ± 0.23 | -1.97 ± 0.2
CGAUAGCAAUAUUACGAGCG | -0.984 ± 0.12 | -0.453 ± 0.13
GUGCAGCAAUAUUACGAUUG | -3.67 ± 0.62 | -2.04 ± 0.56
UUAUAGCAAUAUUACGUAUU | -4.2 ± 0.59 | –
GCCGAGCAAUAUUACGCGCC | – | -1.17 ± 0.61
UGGGAGCAAUAUUACGUGGG | -3.45 ± 0.52 | -3.61 ± 0.73
CCCAAGCAAUAUUACGGGAG | -3.79 ± 0.13 | -2.29 ± 0.13
AUGGAGCAAUAUUACGGAGC | -3.99 ± 0.6 | -2.26 ± 0.65
AUUGAGCAAUAUUACGGUAC | -4.85 ± 0.72 | –
GUCGAGCAAUAUUACGGCGG | -3.18 ± 0.68 | –
AAAGAGCAAUAUUACGACCC | – | -2.3 ± 1.1

Sequence | self-splicing fitness (ln) (30 °C) | self-splicing fitness (ln) (37 °C)
UACGAGCAAUAUUACGGGCC | -4.32 ± 0.51 | –
UGGAAGCAAUAUUACGAAAG | -1.72 ± 0.16 | -0.893 ± 0.2
UACCAGCAAUAUUACGAAUA | -0.776 ± 0.086 | 0.199 ± 0.093
UAGUAGCAAUAUUACGCCAA | -3.28 ± 0.29 | -2.02 ± 0.24
CUCUAGCAAUAUUACGGCCU | -1.63 ± 0.5 | –
UUUGAGCAAUAUUACGCCAC | -2.72 ± 0.57 | –
UAUAAGCAAUAUUACGUACG | -0.621 ± 0.13 | -0.0322 ± 0.15
UACGAGCAAUAUUACGCGCU | -5.14 ± 0.58 | –
UCGGAGCAAUAUUACGUGGC | -3.51 ± 0.73 | –
GUUGAGCAAUAUUACGUGAA | -3.95 ± 0.59 | –
AAUGAGCAAUAUUACGGUAU | -4.41 ± 1 | –
GGUUAGCAAUAUUACGCGGU | -2.85 ± 0.49 | -2.36 ± 0.35
UUUUAGCAAUAUUACGGCCG | – | 0.19 ± 0.54
UGGGAGCAAUAUUACGGCCC | – | -2.3 ± 1.1
GUCAAGCAAUAUUACGUUUG | -5.29 ± 0.59 | –
GGGGAGCAAUAUUACGCAAC | – | 0.000402 ± 1.2
CUCCAGCAAUAUUACGUUCG | -3.41 ± 0.13 | -2.39 ± 0.17
UUUGAGCAAUAUUACGCGGC | -1.16 ± 0.56 | -0.278 ± 0.93
CGGGAGCAAUAUUACGUCAC | -3.43 ± 0.63 | -1.69 ± 0.59
GUCAAGCAAUAUUACGCUGG | -4.08 ± 0.28 | -3.72 ± 0.29
AAGUAGCAAUAUUACGCUCC | 0.062 ± 1.1 | 0.136 ± 0.58
GGAGAGCAAUAUUACGAUGG | – | -2.31 ± 1.1
UAUGAGCAAUAUUACGCUAC | -2.79 ± 0.2 | -2.25 ± 0.43

Shown with tabs: entries from further up.
Sequence	self-splicing fitness (ln) (30 °C)	self-splicing fitness (ln) (37 °C)
UAGUAGCAAUAUUACGCCAA	-3.28 ± 0.29	-2.02 ± 0.24
UUUGAGCAAUAUUACGCCAC	-2.72 ± 0.57	–
AAUGAGCAAUAUUACGGUAU	-4.41 ± 1	–
GUCAAGCAAUAUUACGUUUG	-5.29 ± 0.59	–
CGGGAGCAAUAUUACGUCAC	-3.43 ± 0.63	-1.69 ± 0.59

(further entries)

Sequence | self-splicing fitness (ln) (30 °C) | self-splicing fitness (ln) (37 °C)
UAUAAGCAAUAUUACGAGAC | -3.61 ± 0.75 | -2.66 ± 0.76
AAGGAGCAAUAUUACGCGGC | – | -3 ± 1.1
UAUCAGCAAUAUUACGAAAA | -0.436 ± 0.13 | -0.123 ± 0.17
AGGAAGCAAUAUUACGCCCU | – | -3.03 ± 0.53
UCUCAGCAAUAUUACGAGGU | -3.27 ± 1.1 | –
AGGGAGCAAUAUUACGGAGU | -3.81 ± 0.59 | -2.28 ± 0.79
GACAAGCAAUAUUACGUCCC | -2.39 ± 0.56 | -0.711 ± 0.64
GCGUAGCAAUAUUACGCUAC | -1.53 ± 0.72 | -0.921 ± 0.58
CUCUAGCAAUAUUACGGCCA | – | -3.27 ± 0.6
UGAUAGCAAUAUUACGCAAG | -4.42 ± 0.59 | –
AUUUAGCAAUAUUACGGUUG | – | -0.606 ± 0.58
GGUGAGCAAUAUUACGUGCG | -0.62 ± 0.12 | -0.505 ± 0.18
UUCAAGCAAUAUUACGCCCC | -1.13 ± 0.61 | -1.29 ± 1.2
CAAUAGCAAUAUUACGGUUC | – | -2.05 ± 0.8
AUUCAGCAAUAUUACGUGGU | -3 ± 0.12 | -0.786 ± 0.099
UAGGAGCAAUAUUACGGGGC | -1.15 ± 0.76 | -1.98 ± 1.1
AAAGAGCAAUAUUACGCUAU | -4.95 ± 1 | –
GAGGAGCAAUAUUACGCGGC | – | -0.601 ± 0.82
GAUGAGCAAUAUUACGGUGC | -4.57 ± 0.72 | –
AGGGAGCAAUAUUACGUCCC | -1.52 ± 0.71 | 0.218 ± 0.61
CGUGAGCAAUAUUACGAGCC | -2.18 ± 0.62 | –
ACGCAGCAAUAUUACGCAAA | -2.51 ± 0.13 | -1.77 ± 0.14
GACCAGCAAUAUUACGCUAC | -4.89 ± 0.51 | –

Sequence | self-splicing fitness (ln) (30 °C) | self-splicing fitness (ln) (37 °C)
GACUAGCAAUAUUACGAAAU | -1.07 ± 0.16 | 0.651 ± 0.26
GAAUAGCAAUAUUACGGUUG | -1.27 ± 0.092 | -0.561 ± 0.13
CAGGAGCAAUAUUACGUACU | -3.37 ± 0.52 | –
GGAGAGCAAUAUUACGGAAU | -3.07 ± 0.53 | -2.23 ± 0.55
CGGCAGCAAUAUUACGAAAC | -3.19 ± 0.33 | -2.93 ± 0.25
ACAGAGCAAUAUUACGUUGC | – | -3.62 ± 0.52
AUGGAGCAAUAUUACGAUUG | -2.3 ± 0.25 | -3.12 ± 0.33
AUGGAGCAAUAUUACGAGCC | – | -1.39 ± 1.2
UCAGAGCAAUAUUACGCCUG | – | -3.09 ± 0.6
CAAUAGCAAUAUUACGUUCA | -3.43 ± 0.25 | -2.59 ± 0.24
UUACAGCAAUAUUACGAAGC | -2.95 ± 0.54 | –
GUAUAGCAAUAUUACGCAUC | -2.15 ± 0.17 | -0.982 ± 0.13
CCAUAGCAAUAUUACGAAAA | – | -3.63 ± 0.51
UUUGAGCAAUAUUACGCCCA | -0.167 ± 1.2 | -2.47 ± 1.1
GUCGAGCAAUAUUACGAGCU | – | -0.78 ± 0.55
UAGGAGCAAUAUUACGGUCU | – | -2.44 ± 0.63
GUUUAGCAAUAUUACGAAGC | -4.07 ± 0.52 | –
GUAUAGCAAUAUUACGAAGC | -3.19 ± 0.54 | –
AAGGAGCAAUAUUACGCGGG | – | -2.54 ± 0.63
AGCAAGCAAUAUUACGCAGA | -2.73 ± 0.22 | -2.05 ± 0.18
UGCUAGCAAUAUUACGGAGA | -3.88 ± 0.73 | –
GGCGAGCAAUAUUACGCGCG | -4.04 ± 0.52 | –
AGUGAGCAAUAUUACGCGAG | – | -1.86 ± 0.65

Source: the supplement of paper PMC7877785
